# Taken from: PubChem BioAssay AID1224830 (NIAID, 2016)
# Purpose: 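Host factors that control LPS-induced TNF expression in human macrophages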 (primary screen)
# System: human THP-1 monocytic leukaemia cells, TNF dual-luciferase reporter clone, PMA-differentiated to macrophage-like cells
# Reagents: siRNA pool against human genes, 50 nM
# Duration: LPS for 4 h, given about 3 days after siRNA transfection
# Conditions: bacterial LPS (TLR4 ligand), 10 ng/ml
# Measurement: 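TNF firefly reporter luminescence divided by renilla, normalised to the plate median, then turned into a robust z-score for each replicate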
# Direction: TNF reporter robust z-score: higher = stronger TNF reporter response to LPS
# Call rule: 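Each well counts as active if its z-score is over 2.8 or under -1.5; controls are left without a call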
# Here is a random part of about 18,000 reagents tested. About 2,900 of them (16%) were called active. 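Calls are made per well; low scores hint the gene aids the LPS response, high scores that it dampens it.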 Repeated entries: four replicate wells of each siRNA pool. No sequences are given here.
gene,TNF reporter robust z-score,outcome
SLX9 (SLX9 ribosome biogenesis factor),-0.38,inactive
SLX9 (SLX9 ribosome biogenesis factor),-0.21,inactive
SLX9 (SLX9 ribosome biogenesis factor),-0.11,inactive
SLX9 (SLX9 ribosome biogenesis factor),-0.47,inactive
OR5M3 (olfactory receptor family 5 subfamily M member 3),-0.95,inactive
OR5M3 (olfactory receptor family 5 subfamily M member 3),-0.13,inactive
OR5M3 (olfactory receptor family 5 subfamily M member 3),-0.45,inactive
OR5M3 (olfactory receptor family 5 subfamily M member 3),-0.76,inactive
"SEC16A (SEC16 homolog A, endoplasmic reticulum export factor)",-0.52,inactive
"SEC16A (SEC16 homolog A, endoplasmic reticulum export factor)",-0.75,inactive
"SEC16A (SEC16 homolog A, endoplasmic reticulum export factor)",-0.32,inactive
"SEC16A (SEC16 homolog A, endoplasmic reticulum export factor)",0.35,inactive
ADGRE2 (adhesion G protein-coupled receptor E2),-0.26,inactive
ADGRE2 (adhesion G protein-coupled receptor E2),0.22,inactive
ADGRE2 (adhesion G protein-coupled receptor E2),0.2,inactive
ADGRE2 (adhesion G protein-coupled receptor E2),-0.05,inactive
IST1 (IST1 factor associated with ESCRT-III),-0.32,inactive
IST1 (IST1 factor associated with ESCRT-III),-0.55,inactive
IST1 (IST1 factor associated with ESCRT-III),-0.11,inactive
IST1 (IST1 factor associated with ESCRT-III),0.59,inactive
ANKRD53 (ankyrin repeat domain 53),-0.09,inactive
ANKRD53 (ankyrin repeat domain 53),-0.53,inactive
ANKRD53 (ankyrin repeat domain 53),-0.19,inactive
ANKRD53 (ankyrin repeat domain 53),0.31,inactive
STMN2 (stathmin 2),-1.63,active
STMN2 (stathmin 2),-1.14,inactive
STMN2 (stathmin 2),-1.62,active
STMN2 (stathmin 2),-1.77,active
AMIGO1 (adhesion molecule with Ig like domain 1),2.28,inactive
AMIGO1 (adhesion molecule with Ig like domain 1),0.27,inactive
AMIGO1 (adhesion molecule with Ig like domain 1),0.8,inactive
AMIGO1 (adhesion molecule with Ig like domain 1),0.04,inactive
SPATA1 (spermatogenesis associated 1),-0.41,inactive
SPATA1 (spermatogenesis associated 1),-0.02,inactive
SPATA1 (spermatogenesis associated 1),-0.73,inactive
SPATA1 (spermatogenesis associated 1),3.03,active
"PMPCA (peptidase, mitochondrial processing subunit alpha)",0.37,inactive
"PMPCA (peptidase, mitochondrial processing subunit alpha)",1.55,inactive
"PMPCA (peptidase, mitochondrial processing subunit alpha)",1.39,inactive
"PMPCA (peptidase, mitochondrial processing subunit alpha)",1.29,inactive
OBSL1 (obscurin like cytoskeletal adaptor 1),2.27,inactive
OBSL1 (obscurin like cytoskeletal adaptor 1),1.91,inactive
OBSL1 (obscurin like cytoskeletal adaptor 1),2.95,active
OBSL1 (obscurin like cytoskeletal adaptor 1),3.22,active

Targets above whose target name starts with I or i:
gene,TNF reporter robust z-score,outcome
IST1 (IST1 factor associated with ESCRT-III),-0.32,inactive
IST1 (IST1 factor associated with ESCRT-III),-0.55,inactive
IST1 (IST1 factor associated with ESCRT-III),-0.11,inactive
IST1 (IST1 factor associated with ESCRT-III),0.59,inactive

The list goes on:
gene,TNF reporter robust z-score,outcome
SFRP2 (secreted frizzled related protein 2),0.18,inactive
SFRP2 (secreted frizzled related protein 2),0.6,inactive
SFRP2 (secreted frizzled related protein 2),0.31,inactive
SFRP2 (secreted frizzled related protein 2),-0.09,inactive
TBL1X (transducin beta like 1 X-linked),0.15,inactive
TBL1X (transducin beta like 1 X-linked),0.61,inactive
TBL1X (transducin beta like 1 X-linked),0.39,inactive
TBL1X (transducin beta like 1 X-linked),0.37,inactive
EFNB1 (ephrin B1),0.78,inactive
EFNB1 (ephrin B1),2.43,inactive
EFNB1 (ephrin B1),0.87,inactive
EFNB1 (ephrin B1),1.55,inactive
DNAJC14 (DnaJ heat shock protein family (Hsp40) member C14),0.14,inactive
DNAJC14 (DnaJ heat shock protein family (Hsp40) member C14),0.12,inactive
DNAJC14 (DnaJ heat shock protein family (Hsp40) member C14),-0.45,inactive
DNAJC14 (DnaJ heat shock protein family (Hsp40) member C14),1.07,inactive
HPRT1 (hypoxanthine phosphoribosyltransferase 1),-1.08,inactive
HPRT1 (hypoxanthine phosphoribosyltransferase 1),0.14,inactive
HPRT1 (hypoxanthine phosphoribosyltransferase 1),-1.07,inactive
HPRT1 (hypoxanthine phosphoribosyltransferase 1),-1.13,inactive
NTAQ1 (N-terminal glutamine amidase 1),-0.12,inactive
NTAQ1 (N-terminal glutamine amidase 1),-0.6,inactive
NTAQ1 (N-terminal glutamine amidase 1),0.2,inactive
NTAQ1 (N-terminal glutamine amidase 1),0.94,inactive
"ACOX3 (acyl-CoA oxidase 3, pristanoyl)",-0.12,inactive
"ACOX3 (acyl-CoA oxidase 3, pristanoyl)",0.2,inactive
"ACOX3 (acyl-CoA oxidase 3, pristanoyl)",0.44,inactive
"ACOX3 (acyl-CoA oxidase 3, pristanoyl)",0.24,inactive
MBOAT1 (membrane bound glycerophospholipid O-acyltransferase 1),-0.08,inactive
MBOAT1 (membrane bound glycerophospholipid O-acyltransferase 1),-0.19,inactive
MBOAT1 (membrane bound glycerophospholipid O-acyltransferase 1),0.01,inactive
MBOAT1 (membrane bound glycerophospholipid O-acyltransferase 1),0.2,inactive
ADGRF5 (adhesion G protein-coupled receptor F5),-0.06,inactive
ADGRF5 (adhesion G protein-coupled receptor F5),-0.12,inactive
ADGRF5 (adhesion G protein-coupled receptor F5),-0.21,inactive
ADGRF5 (adhesion G protein-coupled receptor F5),0.63,inactive
LSM5,-1.02,inactive
LSM5,-0.2,inactive
LSM5,0.32,inactive
LSM5,0.07,inactive
"LIPG (lipase G, endothelial type)",-0.38,inactive
"LIPG (lipase G, endothelial type)",0.9,inactive
"LIPG (lipase G, endothelial type)",0.01,inactive
"LIPG (lipase G, endothelial type)",0.54,inactive
ZNF385B (zinc finger protein 385B),0.77,inactive
ZNF385B (zinc finger protein 385B),1.62,inactive
ZNF385B (zinc finger protein 385B),3.22,active
ZNF385B (zinc finger protein 385B),2.91,active
SEMG2 (semenogelin 2),-0.21,inactive
SEMG2 (semenogelin 2),-0.09,inactive
SEMG2 (semenogelin 2),-0.05,inactive
SEMG2 (semenogelin 2),0.43,inactive
"ST8SIA1 (ST8 alpha-N-acetyl-neuraminide alpha-2,8-sialyltransferase 1)",0.85,inactive
"ST8SIA1 (ST8 alpha-N-acetyl-neuraminide alpha-2,8-sialyltransferase 1)",2.06,inactive
"ST8SIA1 (ST8 alpha-N-acetyl-neuraminide alpha-2,8-sialyltransferase 1)",3.18,active
"ST8SIA1 (ST8 alpha-N-acetyl-neuraminide alpha-2,8-sialyltransferase 1)",0.74,inactive
C1QTNF1 (C1q and TNF related 1),0.08,inactive
C1QTNF1 (C1q and TNF related 1),-0.69,inactive
C1QTNF1 (C1q and TNF related 1),0.03,inactive
C1QTNF1 (C1q and TNF related 1),0.63,inactive
FBXW11 (F-box and WD repeat domain containing 11),0.01,inactive
FBXW11 (F-box and WD repeat domain containing 11),1.46,inactive
FBXW11 (F-box and WD repeat domain containing 11),0.06,inactive
FBXW11 (F-box and WD repeat domain containing 11),-0.62,inactive
ZUP1 (zinc finger containing ubiquitin peptidase 1),0.23,inactive
ZUP1 (zinc finger containing ubiquitin peptidase 1),0.26,inactive
ZUP1 (zinc finger containing ubiquitin peptidase 1),-0.18,inactive
ZUP1 (zinc finger containing ubiquitin peptidase 1),0.66,inactive
